Source: patent US20020146774A1 (LUDWIG INSTITUTE FOR CANCER RESEARCH, published 2002)
Positions count from the first letter of the chain named. No constants are given. Whether binding was seen depends on the method and setting. In cells and extracts the contact can be indirect. Some entries that bind do so weakly or less than the wild type. Where a sequence is shown, tags or fusion partners need not be part of it.

Amino acid sequences for entries named in this document (tags omitted). A change or cut given only in a name is not applied to a line headed by its entry.
UniProt Q62432: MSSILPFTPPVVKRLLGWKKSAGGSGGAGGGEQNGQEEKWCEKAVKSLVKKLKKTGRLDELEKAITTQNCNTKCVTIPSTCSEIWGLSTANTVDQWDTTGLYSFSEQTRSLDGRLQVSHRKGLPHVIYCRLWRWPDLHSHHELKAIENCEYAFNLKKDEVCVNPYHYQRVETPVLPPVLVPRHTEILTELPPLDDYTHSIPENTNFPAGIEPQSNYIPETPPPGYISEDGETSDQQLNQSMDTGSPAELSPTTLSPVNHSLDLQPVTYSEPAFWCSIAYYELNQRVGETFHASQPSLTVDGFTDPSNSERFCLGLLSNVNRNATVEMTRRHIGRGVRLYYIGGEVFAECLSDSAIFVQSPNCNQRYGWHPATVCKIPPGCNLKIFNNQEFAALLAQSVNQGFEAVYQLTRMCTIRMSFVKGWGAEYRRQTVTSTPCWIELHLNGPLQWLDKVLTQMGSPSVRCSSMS

Assays:
[1] = molecular target: T1, wild-type TβR-I tagged at C-terminus with HA epitope (UniProt P36897); experiment: co-immunoprecipitation
T1 sequence (looked up): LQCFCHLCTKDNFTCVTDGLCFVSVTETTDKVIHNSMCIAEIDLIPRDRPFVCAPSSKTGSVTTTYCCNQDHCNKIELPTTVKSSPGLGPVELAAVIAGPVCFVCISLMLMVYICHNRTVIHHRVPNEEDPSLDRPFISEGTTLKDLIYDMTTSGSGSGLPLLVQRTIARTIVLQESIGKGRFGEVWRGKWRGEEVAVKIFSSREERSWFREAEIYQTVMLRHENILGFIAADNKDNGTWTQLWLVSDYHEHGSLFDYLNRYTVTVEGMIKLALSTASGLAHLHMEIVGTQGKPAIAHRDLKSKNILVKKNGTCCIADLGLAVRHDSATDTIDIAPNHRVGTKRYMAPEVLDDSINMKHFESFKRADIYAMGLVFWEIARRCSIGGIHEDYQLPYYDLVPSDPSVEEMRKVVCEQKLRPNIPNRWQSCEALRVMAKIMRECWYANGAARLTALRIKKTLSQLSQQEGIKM

[2] = molecular target: T1, wild-type TβR-I tagged at C-terminus with HA epitope; experiment: summary of the co-immunoprecipitation experiment
[3] = molecular target: T1, wild-type TβR-I tagged at C-terminus with HA epitope; experiment: co-immunoprecipitation of 125I-TGF-β1 cross-linked receptors with Smad2 antiserum, COS-1 cells
[4] = molecular target: T2, kinase-inactive (K.R.) TβR-I tagged at C-terminus with HA epitope (UniProt P36897); experiment: co-immunoprecipitation
T2 sequence (phosphorylated by TβR-II kinase (sites not printed), looked up): T1 sequence (looked up) with K199R

[5] = molecular target: T2, kinase-inactive (K.R.) TβR-I tagged at C-terminus with HA epitope; experiment: co-immunoprecipitation of 125I-TGF-β1 cross-linked receptors with Smad2 antiserum, COS-1 cells

binding [1]	binding [2]	binding [3]	binding [4]	binding [5]	Substance
binds	binds	binds	–	–	Smad2/S467A (from UniProt Q62432 1-466)
binds	binds	binds	–	–	Smad2/S464A (from UniProt Q62432 1-467)
binds	binds	binds	–	–	Smad2/S465A (from UniProt Q62432 1-467)
binds	binds	binds	–	–	Smad2/S465,467A (from UniProt Q62432 1-464)
–	–	–	binds	binds	wild-type Smad2 (from UniProt Q62432 1-467)
binds	–	binds	–	–	Smad2/S464,465,467A (from UniProt Q62432 1-463)
